# Measured values taken from PubChem BioAssay AID2685 (National Center for Advancing Translational Sciences (NCATS), 2010).
# The list shows a part of the results. These are further read-outs of the screen, such as a control signal, another cell line or another target. No call is given for them. Most of these compounds were active or inconclusive in the main read-out, so they are no random draw. The note in brackets gives the kind of curve behind each potency; many fits are weak.
# Experiment: qHTS Assay for Lipid Storage Modulators in Drosophila S3 Cells;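 on cell number change: cells counted by Cell Tracker Red CMTPX staining in the red channel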
# Settings: BODIPY lipid droplet fluorescence, 18-24 h; for cell number change: measured here: cell count max response, cells fed with added oleic acid
# Summary of the method: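 Drosophila S3 cells loaded with oleic acid (400 uM, as added) and compounds at several concentrations; lipid droplets imaged by 488-nm laser-scanning cytometry, 500–530 nm intensity and object ratio to cell channel. Percent activity normalized to 20 uM Triacsin C.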
# [1] = measured here: cell number channel AC50, cells fed with added oleic acid
# [2] = measured here: lipid fluorescence (Fed channel) AC50, cells fed with added oleic acid
SMILES,cell number change [%],AC50 [1],AC50 [2]
CC(C)(C)NC(=O)CN(Cc1ccco1)C(=O)CCC(=O)Nc1nccs1,23.4,"0.00411 µM [rising, full curve, poor fit]","29.1 µM [falling, single point]"
CN(Cc1nc(-c2ccc(Cl)cc2)no1)C(=O)c1ccc2c(c1)OCO2,36.8,"13 µM [rising, single point]",–
CCOC(=O)c1nn(-c2ccc(C)cc2)c2nc(Nc3ccccc3)cc(=O)n12,4.33,–,–
COc1cccc(C(=O)NC2C(=O)N3C(C(=O)O)=C(COC(C)=O)CSC23)c1 (stereo unspecified),-30,"3.66 µM [falling, full curve, poor fit]","5.17 µM [falling, full curve, poor fit]"
Cc1ccc(C(=O)Nc2ccc3c(c2)OCCO3)o1,40.8,"10.3 µM [rising, single point]",–
CCOc1cc(-c2cc(-c3ccc(NC(C)=O)cc3)nc(N)c2C#N)ccc1O,-10.2,–,"29.1 µM [falling, single point]"
Cc1noc(C)c1Cc1c(Cl)cccc1Cl,-27.8,–,–
O=C(CSc1nc(-c2ccccc2)c(-c2ccccc2)o1)N1CCOCC1,-6.9,–,"6.51 µM [falling, single point]"
O=C(CC1C(=O)NCCN1Cc1ccoc1)NCc1cccc(OC(F)(F)F)c1 (stereo unspecified),16.3,–,"0.651 µM [rising, full curve, poor fit]"
Cc1c(C(=O)OC/C(O)=C(\C#N)c2nc3ccccc3[nH]2)oc2ccccc12,-22.8,–,"16.4 µM [falling, partial curve]"
CCCCn1c(N)c(N(CC(C)C)C(=O)CC2OC(=O)c3ccccc32)c(=O)[nH]c1=O (stereo unspecified),-25,"3.26 µM [falling, full curve, poor fit]","29.1 µM [rising, single point]"
Cc1ccc(C2CC(=O)Nc3cc4c(cc32)OCCO4)s1 (stereo unspecified),-154,"25.9 µM [falling, partial curve]",–
CN(C(=O)CSc1ncnc2sccc12)C1CCS(=O)(=O)C1 (stereo unspecified),-20.7,–,"0.231 µM [falling, full curve, poor fit]"
COc1ccc(C2C=C(c3ccc(Br)cc3)Nc3nc(N4C(=O)CCC4=O)nn32)cc1 (stereo unspecified),24,–,–
CN(C)c1ccc(/C=C2/NC(=O)NC2=O)cc1,-5.55,–,–
O=C(NCCc1ccccc1F)/C(=C/c1cccnc1)NC(=O)c1ccccc1,8.4,–,"0.164 µM [rising, partial curve, poor fit]"
COc1ccc(NC(=O)CSCC(=O)Nc2cc(Cl)ccc2N2CCOCC2)cc1,-20.3,–,–
CCOc1ccc(S(=O)(=O)N2CCCCC2)cc1NC(=O)CSCc1c(C)noc1C,14.4,"6.51 µM [rising, single point]","3.66 µM [rising, partial curve, poor fit]"
C[C@@H]1CC[C@H](O)/C=C/C(=O)O[C@H](C)CC[C@H](O)/C=C/C(=O)O1,–,–,"6.51 µM [falling, partial curve]"
O=C(Nc1nnc(-c2ccc3c(c2)OCCO3)o1)c1ccc(Cc2ccccc2)cc1,-6.26,–,"0.291 µM [falling, full curve]"

SMILES,cell number change [%],AC50 [1],AC50 [2]
CCC(=O)N1c2ccccc2NC2=C(C(=O)CCC2)C1c1cccnc1 (stereo unspecified),4.23,–,"3.26 µM [rising, single point]"
COC(=O)CCc1nc2cc(Cl)ccc2n(Cc2ccccc2)c1=O,109,–,–
CCOC(=O)n1n[n+]([O-])c2ccccc21,-17.3,–,"6.51 µM [falling, partial curve]"
Cc1cc(C)nc(N2CCC(C(=O)Nc3nnc(C)s3)CC2)n1,4.31,–,–
COc1ccc(N2C(=O)CC(N3CCN(c4ccccc4OC)CC3)C2=O)cc1 (stereo unspecified),8.21,–,"6.51 µM [rising, single point]"
CCOc1ccc(CNC(=O)CCC(=O)N2CCSc3ccccc32)cc1,22.5,–,"1.84 µM [rising, full curve]"
Cc1cccc(C)c1OCCCN1CCCC1,-32.3,"0.82 µM [falling, full curve]","0.731 µM [falling, full curve]"
O=S(=O)(Nc1ccc(Cc2ccncc2)cc1)c1ccc(Cl)s1,12.8,–,"20.6 µM [rising, single point]"
CCCn1c(=O)[nH]c(=O)c2c1nc(-c1cc([N+](=O)[O-])ccc1Cl)n2CCOC,-3.85,"0.82 µM [rising, partial curve, poor fit]","6.51 µM [falling, partial curve]"
CN1CCC(OC(=O)c2ccc(Cl)cc2Cl)CC1,2.49,–,"23.1 µM [rising, single point]"
CCc1nc(SCC(=O)Nc2ccc(OC)cc2[N+](=O)[O-])n[nH]1,11.6,–,"3.66 µM [rising, single point]"
Cc1ccc(Oc2nc(-c3ccccn3)nc3ccccc23)cc1,-23.3,–,"16.4 µM [falling, partial curve, poor fit]"
CCOC(=O)c1ccc(NC(=O)Nc2ncc(Cl)cc2Cl)cc1,4.12,–,"0.651 µM [rising, full curve, poor fit]"
O=C(CCS(=O)(=O)c1ccccc1)Nc1ccc(Cl)cn1,-17.1,–,–
CC(C)NC(=O)CSc1nccc(-c2cccs2)n1,-8.45,"6.51 µM [falling, single point]","6.51 µM [falling, partial curve]"
Cc1ccc(NC(=O)NNc2cccc(Cl)n2)cc1,-10.7,–,"23.1 µM [falling, single point]"
CN(c1ccccc1C(=O)O)S(=O)(=O)c1ccc2[nH]c(=O)[nH]c2c1,24.4,–,–
O=S(=O)(Nc1ccc(Cl)c(C(F)(F)F)c1)c1cnc[nH]1,-23.6,"0.82 µM [falling, full curve, poor fit]","0.92 µM [falling, full curve, poor fit]"
COc1ccc(NC(=O)c2ccccc2NS(=O)(=O)c2ccc(C)cc2)c([N+](=O)[O-])c1,-41.2,"29.1 µM [falling, single point]","5.8 µM [falling, partial curve]"
Cc1cc(OC(=O)c2cccs2)ccc1C(C)C,-42.1,"29.1 µM [falling, single point]","3.66 µM [falling, full curve]"

SMILES,cell number change [%],AC50 [1],AC50 [2]
Cc1ccccc1NC(=O)c1sc2nc(N3CCOCC3)c3c(c2c1N)CCCC3,2.36,–,"0.58 µM [rising, single point]"
O=C(CNS(=O)(=O)c1ccc(Br)cc1)OCc1cc(=O)n2cc(Br)ccc2n1,23.8,–,"11.6 µM [rising, partial curve, poor fit]"
COc1ccccc1/C=C/C(=O)N1CCCC1,-12.9,–,"20.6 µM [falling, partial curve]"
Cc1ccc(SCC(=O)NC(C)c2ccccc2)cc1 (stereo unspecified),14,–,–
CCc1c(C)nc2ccc(Br)cc2c1SCCC#N,32.1,"7.31 µM [rising, partial curve]","1.64 µM [rising, partial curve, poor fit]"
O=C(CN1C(=O)c2ccccc2C1=O)N1CCN(S(=O)(=O)c2ccccc2)CC1,57.7,"3.66 µM [rising, full curve]","29.1 µM [rising, single point]"
Cc1ccccc1NC(=S)N1CCN(c2ccccc2C)CC1,-8.07,–,–
CCCc1cc(O)c2c(C)cc(=O)oc2c1,-21.6,–,"8.2 µM [falling, partial curve]"
COc1cc(NC(=O)c2cccnc2Sc2ccc(Cl)cc2)cc(OC)c1OC,40.4,"9.2 µM [rising, partial curve]","5.8 µM [rising, partial curve]"
NS(=O)(=O)c1ccc(-c2ccc(/C=C3\SC(=O)NC3=O)o2)cc1,-4.19,–,"4.61 µM [rising, full curve]"
Cc1n[nH]c(=O)nc1NC(C)c1ccccc1 (stereo unspecified),-8.92,–,"4.11 µM [rising, partial curve]"
C/C(CC(=O)Nc1ccc(Cl)cc1C(F)(F)F)=N\NC(N)=S,36.5,"29.1 µM [rising, single point]",–
O=C(/C=C\c1ccc2c(c1)OCO2)NC1(C(=O)Nc2ccc3c(c2)OCCO3)CCCCC1,39.4,"0.82 µM [rising, full curve, poor fit]","1.84 µM [falling, partial curve]"
CCOC(=O)c1ccc(CSc2nnc(C)n2N)o1,24.8,–,"3.66 µM [falling, partial curve]"
CC(=O)NC1=C(N(C)C2CCS(=O)(=O)C2)C(=O)c2ccccc2C1=O (stereo unspecified),-32.6,"6.51 µM [falling, partial curve]","5.8 µM [falling, partial curve]"
O=C(CCCN1C(=O)NC2(CCCC2)C1=O)Nc1ccc(Cl)c(S(=O)(=O)N2CCOCC2)c1,–,–,"0.731 µM [rising, full curve, poor fit]"
CC1(C)Cc2nc3oc4c(=S)nc[nH]c4c3cc2CO1,3.71,–,–
O=C1CC(N2CCN(Cc3ccc(Cl)cc3)CC2)C(=O)N1CCc1ccccc1 (stereo unspecified),-7.87,"0.0058 µM [falling, full curve, poor fit]","0.0731 µM [falling, full curve]"
COc1ccc(CCNC(=O)Nc2ccc3c(c2)OCO3)cc1OC,-36.8,"29.1 µM [falling, partial curve, poor fit]","20.6 µM [falling, single point]"

# A second format for four compounds above.
SMILES | cell number change [%] | AC50 [1] | AC50 [2]
Cc1ccccc1NC(=S)N1CCN(c2ccccc2C)CC1 | -8.07 | – | –
Cc1n[nH]c(=O)nc1NC(C)c1ccccc1 (stereo unspecified) | -8.92 | – | 4.11 µM [rising, partial curve]
CCOC(=O)c1ccc(CSc2nnc(C)n2N)o1 | 24.8 | – | 3.66 µM [falling, partial curve]
CC1(C)Cc2nc3oc4c(=S)nc[nH]c4c3cc2CO1 | 3.71 | – | –
